Our source for the log2 fold change values is the supplement of paper PMC12819154, “High-throughput peptide-centric local stability assay extends protein–ligand identification to membrane proteins, tissues and bacteria” (Nature Structural & Molecular Biology, 2025).

Protein sequences, listed by entry. Tags and fused reporters are not part of them. Lines headed by an entry give the natural chain unless they say otherwise; changes in a name come on top.
UniProt Q5JNZ3: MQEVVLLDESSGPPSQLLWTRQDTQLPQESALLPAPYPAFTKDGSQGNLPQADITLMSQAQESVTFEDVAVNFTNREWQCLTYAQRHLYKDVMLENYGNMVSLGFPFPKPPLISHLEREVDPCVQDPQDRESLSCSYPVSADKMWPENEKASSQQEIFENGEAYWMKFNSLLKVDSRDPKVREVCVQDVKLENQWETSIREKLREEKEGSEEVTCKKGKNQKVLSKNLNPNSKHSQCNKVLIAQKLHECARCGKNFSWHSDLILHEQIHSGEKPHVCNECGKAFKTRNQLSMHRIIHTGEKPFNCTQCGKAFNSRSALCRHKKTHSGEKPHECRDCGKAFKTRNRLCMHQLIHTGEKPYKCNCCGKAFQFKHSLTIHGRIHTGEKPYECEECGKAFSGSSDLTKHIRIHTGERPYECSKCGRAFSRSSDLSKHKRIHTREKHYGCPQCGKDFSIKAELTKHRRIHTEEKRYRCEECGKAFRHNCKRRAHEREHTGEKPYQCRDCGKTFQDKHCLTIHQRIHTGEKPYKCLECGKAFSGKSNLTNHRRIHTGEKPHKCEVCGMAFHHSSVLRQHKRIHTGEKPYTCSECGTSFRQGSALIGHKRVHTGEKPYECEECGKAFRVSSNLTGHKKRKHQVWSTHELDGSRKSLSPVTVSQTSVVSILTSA
UniProt Q562R1, whole entry: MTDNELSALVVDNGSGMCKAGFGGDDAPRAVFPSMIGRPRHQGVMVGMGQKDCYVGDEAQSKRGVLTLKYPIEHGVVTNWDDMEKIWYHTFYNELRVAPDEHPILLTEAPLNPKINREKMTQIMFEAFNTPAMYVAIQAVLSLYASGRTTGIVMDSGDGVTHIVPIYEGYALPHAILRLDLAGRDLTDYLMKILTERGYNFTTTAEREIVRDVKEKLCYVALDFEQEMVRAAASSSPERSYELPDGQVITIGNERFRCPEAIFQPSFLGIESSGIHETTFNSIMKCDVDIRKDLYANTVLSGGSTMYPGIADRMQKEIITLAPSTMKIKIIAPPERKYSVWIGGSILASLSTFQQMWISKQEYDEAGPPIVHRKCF
UniProt Q53HC0: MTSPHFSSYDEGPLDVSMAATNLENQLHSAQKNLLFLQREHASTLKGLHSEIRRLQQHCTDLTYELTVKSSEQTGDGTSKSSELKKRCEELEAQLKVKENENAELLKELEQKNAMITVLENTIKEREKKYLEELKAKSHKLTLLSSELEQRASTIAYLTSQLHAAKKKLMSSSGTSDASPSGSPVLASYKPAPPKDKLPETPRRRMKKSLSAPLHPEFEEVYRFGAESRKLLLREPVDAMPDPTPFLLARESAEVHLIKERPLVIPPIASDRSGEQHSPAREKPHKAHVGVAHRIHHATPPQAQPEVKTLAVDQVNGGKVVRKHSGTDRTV
UniProt Q5T5X7: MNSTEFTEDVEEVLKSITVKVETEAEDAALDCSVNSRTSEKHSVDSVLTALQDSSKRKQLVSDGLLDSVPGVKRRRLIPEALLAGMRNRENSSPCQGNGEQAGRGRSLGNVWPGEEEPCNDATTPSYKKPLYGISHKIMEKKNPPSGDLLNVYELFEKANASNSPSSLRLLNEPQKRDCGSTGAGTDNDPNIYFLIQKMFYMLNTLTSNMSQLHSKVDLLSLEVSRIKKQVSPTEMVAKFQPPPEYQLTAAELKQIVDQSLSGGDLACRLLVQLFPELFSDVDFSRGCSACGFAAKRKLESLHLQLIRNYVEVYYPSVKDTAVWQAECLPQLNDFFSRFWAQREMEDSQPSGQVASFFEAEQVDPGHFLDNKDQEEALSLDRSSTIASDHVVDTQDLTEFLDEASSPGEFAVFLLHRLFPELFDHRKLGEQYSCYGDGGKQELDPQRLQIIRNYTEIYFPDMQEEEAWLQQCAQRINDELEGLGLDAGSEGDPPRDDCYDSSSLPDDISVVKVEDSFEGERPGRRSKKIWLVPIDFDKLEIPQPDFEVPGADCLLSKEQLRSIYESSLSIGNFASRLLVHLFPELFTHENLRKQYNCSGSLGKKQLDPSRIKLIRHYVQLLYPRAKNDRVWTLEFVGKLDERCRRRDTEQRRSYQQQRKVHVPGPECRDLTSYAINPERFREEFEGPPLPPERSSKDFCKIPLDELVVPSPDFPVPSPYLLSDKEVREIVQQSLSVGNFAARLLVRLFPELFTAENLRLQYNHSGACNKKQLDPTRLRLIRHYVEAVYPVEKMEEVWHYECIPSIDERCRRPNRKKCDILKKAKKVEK
UniProt Q5VSL9: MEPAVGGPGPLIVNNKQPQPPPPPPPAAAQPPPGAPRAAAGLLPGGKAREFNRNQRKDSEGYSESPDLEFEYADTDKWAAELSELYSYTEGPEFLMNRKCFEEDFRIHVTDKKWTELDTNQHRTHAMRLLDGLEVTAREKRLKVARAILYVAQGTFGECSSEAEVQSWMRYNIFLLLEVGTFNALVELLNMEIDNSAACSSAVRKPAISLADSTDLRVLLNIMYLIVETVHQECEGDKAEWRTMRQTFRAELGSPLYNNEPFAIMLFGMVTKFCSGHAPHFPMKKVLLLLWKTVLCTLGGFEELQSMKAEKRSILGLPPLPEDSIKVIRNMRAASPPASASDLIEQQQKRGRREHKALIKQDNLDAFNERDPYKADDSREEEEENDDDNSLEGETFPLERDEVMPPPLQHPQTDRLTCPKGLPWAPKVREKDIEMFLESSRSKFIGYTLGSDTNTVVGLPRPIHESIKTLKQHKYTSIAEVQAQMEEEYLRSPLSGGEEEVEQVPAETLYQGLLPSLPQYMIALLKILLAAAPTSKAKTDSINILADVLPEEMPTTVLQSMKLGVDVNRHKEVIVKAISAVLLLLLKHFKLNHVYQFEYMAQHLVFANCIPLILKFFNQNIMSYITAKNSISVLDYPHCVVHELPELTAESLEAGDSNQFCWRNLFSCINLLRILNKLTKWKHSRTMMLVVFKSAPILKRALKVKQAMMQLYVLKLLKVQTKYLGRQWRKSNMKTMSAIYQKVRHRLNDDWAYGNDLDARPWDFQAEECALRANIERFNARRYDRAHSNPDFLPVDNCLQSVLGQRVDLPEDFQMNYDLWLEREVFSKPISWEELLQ
UniProt Q5GLZ8: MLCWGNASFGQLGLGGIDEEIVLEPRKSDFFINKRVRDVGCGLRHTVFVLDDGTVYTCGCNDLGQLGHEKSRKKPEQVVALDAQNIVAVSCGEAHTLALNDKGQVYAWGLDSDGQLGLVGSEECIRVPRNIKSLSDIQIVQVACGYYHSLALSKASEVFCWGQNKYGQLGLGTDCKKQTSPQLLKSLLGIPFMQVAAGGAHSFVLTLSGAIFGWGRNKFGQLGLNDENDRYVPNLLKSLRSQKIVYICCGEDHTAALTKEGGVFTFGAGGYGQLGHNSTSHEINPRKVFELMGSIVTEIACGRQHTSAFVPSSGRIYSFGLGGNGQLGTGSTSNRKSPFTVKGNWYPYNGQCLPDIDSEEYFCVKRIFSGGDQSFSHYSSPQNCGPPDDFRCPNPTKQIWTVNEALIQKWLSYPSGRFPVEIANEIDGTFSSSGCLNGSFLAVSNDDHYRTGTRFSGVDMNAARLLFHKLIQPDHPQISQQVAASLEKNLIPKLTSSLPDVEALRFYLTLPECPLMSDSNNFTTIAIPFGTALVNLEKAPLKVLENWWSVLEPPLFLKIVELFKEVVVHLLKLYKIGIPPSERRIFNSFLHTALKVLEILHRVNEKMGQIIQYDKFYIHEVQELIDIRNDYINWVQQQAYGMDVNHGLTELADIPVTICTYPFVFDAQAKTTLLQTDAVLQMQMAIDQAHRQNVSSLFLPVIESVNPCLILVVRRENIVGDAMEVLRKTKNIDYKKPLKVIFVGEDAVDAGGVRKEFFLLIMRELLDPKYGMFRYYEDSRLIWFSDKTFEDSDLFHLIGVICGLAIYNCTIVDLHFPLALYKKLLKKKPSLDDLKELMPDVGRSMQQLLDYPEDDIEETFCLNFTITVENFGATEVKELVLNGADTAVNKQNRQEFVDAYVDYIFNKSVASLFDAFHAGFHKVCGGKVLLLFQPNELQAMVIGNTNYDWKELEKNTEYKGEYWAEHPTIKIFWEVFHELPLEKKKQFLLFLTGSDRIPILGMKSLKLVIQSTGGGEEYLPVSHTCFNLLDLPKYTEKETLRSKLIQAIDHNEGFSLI
UniProt Q5EBL8: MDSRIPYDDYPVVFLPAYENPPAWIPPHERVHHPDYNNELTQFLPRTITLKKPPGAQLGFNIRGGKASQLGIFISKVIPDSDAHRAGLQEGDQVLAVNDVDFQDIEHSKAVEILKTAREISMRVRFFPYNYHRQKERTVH
UniProt Q49AM3: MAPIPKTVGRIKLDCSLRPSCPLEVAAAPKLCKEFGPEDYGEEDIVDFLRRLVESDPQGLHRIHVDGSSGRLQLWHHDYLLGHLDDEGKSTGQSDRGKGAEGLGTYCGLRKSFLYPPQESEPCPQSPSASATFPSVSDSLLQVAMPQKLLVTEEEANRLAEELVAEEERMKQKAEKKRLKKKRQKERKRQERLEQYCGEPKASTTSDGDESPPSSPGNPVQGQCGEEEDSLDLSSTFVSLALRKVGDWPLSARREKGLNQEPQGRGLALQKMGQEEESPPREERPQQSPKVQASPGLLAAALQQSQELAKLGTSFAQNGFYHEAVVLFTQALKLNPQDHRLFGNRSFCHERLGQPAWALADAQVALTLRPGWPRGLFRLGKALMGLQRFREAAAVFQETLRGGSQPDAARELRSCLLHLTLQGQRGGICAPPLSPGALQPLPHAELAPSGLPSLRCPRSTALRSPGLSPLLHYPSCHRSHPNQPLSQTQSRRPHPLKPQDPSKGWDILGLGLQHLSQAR
UniProt Q5CZ79: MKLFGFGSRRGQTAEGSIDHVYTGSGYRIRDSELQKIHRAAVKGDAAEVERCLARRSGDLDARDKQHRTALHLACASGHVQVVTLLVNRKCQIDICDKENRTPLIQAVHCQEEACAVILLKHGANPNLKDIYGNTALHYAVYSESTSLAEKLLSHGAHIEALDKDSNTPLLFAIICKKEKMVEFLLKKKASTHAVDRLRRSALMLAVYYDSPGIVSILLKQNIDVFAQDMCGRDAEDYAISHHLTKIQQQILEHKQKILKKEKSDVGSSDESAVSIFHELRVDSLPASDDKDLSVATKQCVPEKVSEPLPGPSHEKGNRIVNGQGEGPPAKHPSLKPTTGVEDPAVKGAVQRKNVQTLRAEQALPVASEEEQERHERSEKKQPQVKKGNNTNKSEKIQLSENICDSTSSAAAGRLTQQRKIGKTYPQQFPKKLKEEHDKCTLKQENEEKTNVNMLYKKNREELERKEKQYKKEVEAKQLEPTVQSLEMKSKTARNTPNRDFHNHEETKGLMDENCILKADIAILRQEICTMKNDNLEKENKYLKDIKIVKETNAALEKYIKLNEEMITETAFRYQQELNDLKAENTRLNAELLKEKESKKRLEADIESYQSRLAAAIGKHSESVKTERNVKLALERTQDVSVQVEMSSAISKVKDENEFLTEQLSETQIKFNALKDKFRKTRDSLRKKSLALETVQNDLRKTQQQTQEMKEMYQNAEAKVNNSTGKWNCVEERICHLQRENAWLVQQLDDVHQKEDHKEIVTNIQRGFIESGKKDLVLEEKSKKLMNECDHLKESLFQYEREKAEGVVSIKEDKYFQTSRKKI
UniProt Q53QV2: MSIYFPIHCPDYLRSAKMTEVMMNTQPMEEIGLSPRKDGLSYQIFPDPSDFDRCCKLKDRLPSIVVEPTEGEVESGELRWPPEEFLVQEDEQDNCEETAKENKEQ

The other results are listed elsewhere or left out. Most values lie at the level of the controls, where differences are scatter.

Compound in this experiment: Cc1nc(Nc2ncc(C(=O)Nc3c(C)cccc3Cl)s2)cc(N2CCN(CCO)CC2)n1 [dasatinib]
Briefly: log2 fold change of tryptic peptide abundance, ligand vs vehicle (limited proteolysis) (log2 ratio); higher = more trypsin-susceptible (destabilized). The following applies: ligand concentration: 5 uM; sample: K562 cleared lysate.
On to “UniProt Q5JNZ3 (peptide sequence: LENQWETSIR, peptide start residue: 191)”, for which the log2 fold change amounted to 0.185.
For the target “ACTBL2 (peptide sequence: IWYHTFYNELR, peptide start residue: 86) (UniProt Q562R1)”, the log2 fold change was -0.0609.
The figure for “CCDC92 (peptide sequence: ASTIAYLTSQLHAAK, peptide start residue: 152) (UniProt Q53HC0)” is -0.401.
In the case of “BEND3 (peptide sequence: ANASNSPSSLR, peptide start residue: 159) (UniProt Q5T5X7)”, the log2 fold change is -0.798.
As for “UniProt Q5VSL9 (peptide sequence: ANIERFNARR, peptide start residue: 773)”, the figure is -0.705; as for “HERC4 (peptide sequence: ENIVGDAMEVLRK, peptide start residue: 716) (UniProt Q5GLZ8)”, -0.237.
Consider “UniProt Q5JNZ5 (peptide sequence: PAGAAPRPPPKPM, peptide start residue: 103)”, for which the log2 fold change worked out at 0.377.
The figure for “PDZD11 (peptide sequence: VHHPDYNNELTQFLPR, peptide start residue: 31) (UniProt Q5EBL8)” is 0.358; for “UniProt Q49AM3 (peptide sequence: SHPNQPLSQTQSR, peptide start residue: 479)” it is 0.306.
Turning to “UniProt Q5CZ79 (peptide sequence: LAAAIGK, peptide start residue: 613)”, the log2 fold change was 0.00695.
The figure for “LBH (peptide sequence: KDGLSYQIFPDPSDFDRCCK, peptide start residue: 37) (UniProt Q53QV2)” is -0.328.
